Usually AC50 stands for the concentration at which the activity in the assay is half-maximal.

The list shows a part of the results. Shown are side measurements of this screen, not its main read-out; they come without a call. Most of these compounds were active or inconclusive in the main read-out, so they are no random draw. Potencies come from curve fits of mixed quality, noted in brackets.

The source of these data is PubChem BioAssay AID1487 (National Center for Advancing Translational Sciences (NCATS), 2009).

This assay can be described thus: qHTS Assay for Modulators of Lamin A Splicing. To be noted: HeLa LMNA splicing GFP/RFP minigene ratio, 48 h. Summed up: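 S3 HeLa stable clones carrying a lamin A-EGFP splicing minigene plus DsRed2 were seeded at 600 cells/well in Opti-MEM with 2% FBS, pin-dosed and incubated 48 h at 37°C. Acumen cytometry (488 nm) gave the GFP/RFP total-intensity ratio.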
Where [1] appears, read: measured here: RFP viability control channel.
The mark [2] stands for this setting: measured here: GFP splicing reporter channel.

For the molecule `CC(=O)c1cc(-c2ccccc2)n(CCC(=O)Nc2ccc(C)cc2C)c1C`, the AC50 under setting [1] was 1.12 µM [falling, single point].

Turning to `COc1ccccc1/C=C(/C(=O)OCC(=O)Nc1ccccc1C)c1ccccc1`, under setting [1], the AC50 is 31.6 µM [rising, single point].

For `CCc1ccc(C(=O)Nc2ccc(OC)c(S(=O)(=O)N3CCOCC3)c2)cc1`, the concentration at half-maximal activity (AC50) runs as follows: under setting [2], 11.2 µM [falling, partial curve]; under setting [1], 0.1 µM [falling, full curve, poor fit].

Turning to `COc1ccccc1CNC(=O)CCC1N=C2c3ccccc3N=C(SCc3ccc(C)cc3)N2C1=O` (configuration not stated), under setting [1], the AC50 was 0.355 µM [falling, full curve, poor fit].

`CCC(=O)NC(c1ccc(C)cc1)c1cc([N+](=O)[O-])c2cccnc2c1O` (configuration not stated): the concentration at half-maximal activity (AC50) by setting is: under setting [2], 3.55 µM [falling, partial curve]; under setting [1], 6.31 µM [rising, single point].

As for `COc1ccc(C(=O)/C=C2/c3ccccc3CC(C)(C)N2C)cc1`, the AC50 reads like this: under setting [2], 20 µM [falling, single point]; under setting [1], 20 µM [falling, partial curve, poor fit].

As to `Cc1ccccc1N=C1NN=C(c2ccccc2F)CS1`, the AC50 under setting [1] was 35.5 µM [rising, single point].

As for `Cc1noc(C)c1COC(=O)c1cccc(S(=O)(=O)N2c3ccccc3CC2C)c1` (configuration not stated), under setting [1], the AC50 was 14.1 µM [rising, partial curve].

As to `CC(C)Sc1ncnc2c1oc1ccccc12`, the AC50 under setting [2] is 5.62 µM [rising, single point].

Consider `CSC1=NC(C)(C)C=C(/C=C/c2ccc(Cl)cc2Cl)N1`, for which the half-maximal activity concentration (AC50) under setting [1] was 15.8 µM [falling, single point].

`O=C(c1cc(NC(=O)C23CC4CC(CC(C4)C2)C3)cc(NC(=O)C23CC4CC(CC(C4)C2)C3)c1)N1CCCCC1`: the AC50 under setting [1] was 7.94 µM [rising, partial curve].

As to `CCOc1ccccc1Nc1ncnc2c1cnn2-c1ccccc1`, the AC50 under setting [1] is 35.5 µM [rising, single point].

For the molecule `O=C(CCC(=O)NCCO)NCCO`, the AC50 under setting [1] is 0.251 µM [falling, full curve, poor fit].

With `O=C(NCC(c1cccs1)N1CCOCC1)c1ccc(Cl)c([N+](=O)[O-])c1` (configuration not stated), under setting [1], the AC50 was 11.2 µM [rising, partial curve].

In the case of `O=C(CCCOc1ccccc1)Nc1ccc(Cl)cn1`, the AC50 under setting [1] is 5.01 µM [falling, partial curve, poor fit].

As for `COc1ccc(Cl)cc1NC(=S)NNC(=O)CC(C)C`, the AC50 under setting [2] was 0.0282 µM [rising, full curve, poor fit].

As for `O=C(Nc1nc(-c2cccnc2)cs1)c1ccccc1[N+](=O)[O-]`, the concentration at half-maximal activity (AC50) under setting [1] is 0.0447 µM [falling, full curve, poor fit].

As to `CCCCCOC(=O)C1=C(C)Nc2nnnn2C1c1ccccc1Cl` (configuration not stated), the AC50 by setting is: under setting [2], 14.1 µM [rising, single point]; under setting [1], 31.6 µM [rising, single point].

With `O=C(Nc1ccc(Cl)c(Cl)c1)c1ccncc1`, the AC50 under setting [1] is 20 µM [rising, single point].

Consider `CS(=O)(=O)Nc1cccc(-c2ccc3ncnc(NC4CC4)c3c2)c1`, for which the AC50 under setting [2] is 10 µM [falling, partial curve] and the concentration at half-maximal activity (AC50) under setting [1] was 17.8 µM [falling, partial curve].

Turning to `Cc1ccc2cc(N)ccc2n1`, the concentration at half-maximal activity (AC50) under setting [1] was 0.00447 µM [falling, full curve, poor fit].

In the case of `CCCC(=O)Nc1ccccc1-c1nnn(CC(=O)Nc2ccc(OC)cc2)n1`, the AC50 runs as follows: under setting [2], 22.4 µM [rising, single point]; under setting [1], 31.6 µM [rising, single point].

With `CCCCc1nc2n[nH]c(N)c2c2c1CCCC2`, the AC50 by setting is: under setting [2], 7.94 µM [falling, partial curve]; under setting [1], 15.8 µM [falling, partial curve, poor fit].

Take `CC(=O)Nc1ccc(NC(=O)COC(=O)c2c3c(nc4ccccc24)CCN(Cc2ccccc2)C3)cc1`: the AC50 under setting [1] was 10 µM [rising, partial curve].

As for `O=C(COc1cccc2cccnc12)N/N=C/c1ccc(O)cc1`, the concentration at half-maximal activity (AC50) under setting [2] is 0.02 µM [falling, full curve, poor fit].

On to `O=C(COc1ccccc1)Nc1ccccc1OCc1cc(=O)n2ccccc2n1`, for which, under setting [2], the AC50 was 0.501 µM [rising, full curve, poor fit].

`COc1ccc(-n2c(SCC(=O)c3c(N)n(C)c(=O)n(C)c3=O)nc3ccccc32)cc1`: under setting [2], the AC50 is 4.47 µM [rising, single point].

On to `Cc1ccc(C(=O)c2cc([N+](=O)[O-])ccc2N2CCCCC2)cc1`, for which, under setting [2], the AC50 is 25.1 µM [falling, single point].

Regarding `O=C1C2C3C=CC(C4CC34)C2C(=O)N1/N=C/c1ccc(-c2cccc([N+](=O)[O-])c2)o1` (configuration not stated), the half-maximal activity concentration (AC50) under setting [1] is 14.1 µM [rising, single point].

On to `Cc1cccc(NC(c2ccc(O)cc2)c2ccc3ccc(C)nc3c2O)n1` (configuration not stated), for which, under setting [1], the AC50 is 35.5 µM [rising, single point].

Consider `COc1ccc(-c2noc(CCC(=O)Nc3cc(Cl)c(OC)cc3OC)n2)cc1`, for which, under setting [1], the half-maximal activity concentration (AC50) is 35.5 µM [rising, single point].

Take `COc1cc(NC(=O)CSc2nc3nc(C)c(Cc4ccc(C)cc4)c(C)n3n2)cc(OC)c1OC`: the AC50 reads like this: under setting [2], 8.91 µM [falling, partial curve, poor fit]; under setting [1], 1.26 µM [falling, full curve, poor fit].

`CCOc1ccc(Nc2nc3cc(S(=O)(=O)N(CC)CC)ccc3o2)cc1`: the AC50 was 12.6 µM [rising, single point] under setting [2] and 17.8 µM [rising, single point] under setting [1].

In the case of `CC(C)[C@H](NS(=O)(=O)c1cccc(Cl)c1)C(=O)OCC(=O)N1CCN(c2ccccc2)CC1`, under setting [1], the AC50 was 14.1 µM [rising, partial curve, poor fit].

Turning to `CC(C)C(c1nnnn1C(C)(C)C)N1CCN(c2cccc(Cl)c2)CC1` (configuration not stated), the half-maximal activity concentration (AC50) reads like this: under setting [2], 35.5 µM [rising, single point]; under setting [1], 35.5 µM [rising, single point].

For the molecule `CC(C)C(=O)OC/C(O)=C(\C#N)c1nc2ccccc2[nH]1`, under setting [2], the AC50 was 0.0891 µM [rising, full curve].

Regarding `CCOC(=O)c1c(NC(=O)C2COc3ccccc3O2)sc2c1CC(C)(C)NC2(C)C` (configuration not stated), under setting [1], the AC50 is 6.31 µM [rising, full curve, poor fit].

For the molecule `CCCCCCCCC(=O)N/N=C/c1ccccn1`, the AC50 under setting [2] is 12.6 µM [falling, single point].

`O=c1cc(Cn2nnc(-c3ccc(Cl)cc3)n2)nc2sccn12`: the AC50 under setting [1] is 35.5 µM [rising, single point].

With `N#C/C(=C\c1cccc([N+](=O)[O-])c1)C(=O)NCc1ccc(Cl)cc1`, the AC50 under setting [1] was 14.1 µM [rising, single point].

As for `CC1=C(C(=O)OCc2ccccc2)C(c2ccccc2-c2ccccc2)NC(=O)N1CCCCCC(=O)O` (configuration not stated), the AC50 is 14.1 µM [rising, single point] under setting [2] and 25.1 µM [rising, single point] under setting [1].

Turning to `Oc1c(Cl)cc(Cl)c(Cl)c1Cc1c(O)c(Cl)cc(Cl)c1Cl`, the AC50 reads like this: under setting [2], 5.01 µM [rising, partial curve]; under setting [1], 2 µM [rising, full curve].

In the case of `Cc1c(N(C)C)c(=O)n(-c2ccccc2)n1C`, the AC50 was 0.0708 µM [falling, full curve] under setting [2] and 0.0631 µM [falling, full curve, poor fit] under setting [1].

With `CCOC(=O)N1CCN(S(=O)(=O)c2ccc3[nH]c(=O)sc3c2)CC1`, the AC50 runs as follows: under setting [2], 35.5 µM [rising, single point]; under setting [1], 35.5 µM [rising, single point].

For the molecule `Cc1cc(Cl)ccc1C(=O)C1CCCN(C(=O)/C=C/c2cnn(C)c2)C1` (configuration not stated), the concentration at half-maximal activity (AC50) under setting [1] was 35.5 µM [falling, single point].

On to `CC(NCc1ccc(S(N)(=O)=O)cc1)C(=O)Nc1cc([N+](=O)[O-])ccc1Cl` (configuration not stated), for which the AC50 under setting [2] is 6.31 µM [rising, partial curve, poor fit].

As to `Cc1c(Cl)c([N+](=O)[O-])nn1Cc1ccc(C(=O)N/N=C\c2ccccn2)o1`, the concentration at half-maximal activity (AC50) is 12.6 µM [rising, single point] under setting [2] and 14.1 µM [rising, single point] under setting [1].

Consider `CCCc1c(-c2ccc(O)cc2)nn(-c2ccc(O)cc2)c1-c1ccc(O)cc1`, for which the half-maximal activity concentration (AC50) is 3.55 µM [falling, full curve, poor fit] under setting [2] and 3.16 µM [falling, full curve, poor fit] under setting [1].

Turning to `CCOc1ccc2[nH]c(=O)c(C(c3nnnn3C3CCCCC3)N3CCN(CC)CC3)cc2c1` (configuration not stated), the AC50 is 35.5 µM [rising, single point] under setting [2] and 35.5 µM [rising, single point] under setting [1].

For the molecule `CCOC(=O)C(C(=O)OCC)C(Nc1ccc(Br)cc1)c1ccccc1` (configuration not stated), the concentration at half-maximal activity (AC50) is 35.5 µM [falling, single point] under setting [2] and 35.5 µM [falling, single point] under setting [1].

For `CCOC(=O)/C(C#N)=C1\Nc2ccccc2N=C1N(CC(C)C)CC(C)C`, the half-maximal activity concentration (AC50) by setting is: under setting [2], 5.62 µM [falling, single point]; under setting [1], 5.62 µM [falling, single point].

As for `O=C(NCc1cccnc1)/C(=C\c1ccc(-c2cccc(Cl)c2)o1)S(=O)(=O)c1ccccc1`, the AC50 under setting [2] is 6.31 µM [falling, full curve].

With `CC(Oc1cccc(NC(=O)c2cccs2)c1)C(=O)c1ccccc1` (configuration not stated), the half-maximal activity concentration (AC50) by setting is: under setting [2], 3.16 µM [rising, single point]; under setting [1], 2.82 µM [rising, full curve, poor fit].

In the case of `COc1ccc(NC(=O)c2c(NCc3sccc3C)sc3c2CCCCC3)c(OC)c1`, the AC50 reads like this: under setting [2], 35.5 µM [rising, single point]; under setting [1], 35.5 µM [rising, single point].

Turning to `O=C(NCCc1ccc2c(c1)OCCO2)c1ccc(F)cc1`, the AC50 is 31.6 µM [rising, single point] under setting [2] and 35.5 µM [rising, single point] under setting [1].
